Data on four substances can be found in patent US6495336B1 (Pentapharm AG, priority 2001, dated 2002).

The nature of this data set: general procedure: solution-phase peptide synthesis; TBTU/NMM; DCC/NHS.

For “Boc-(D)-Chg-Gly-Pro-Arg 3-chloro-4-hydroxyanilide×TFA”, the step yield (coupling step, TFA salt) was 68.0%.
As to “t-Bups-(D)-Chg-Gly-Pro-Arg 3-chloro-4-hydroxyanilide×TFA”, the step yield (late stage modification step, TFA salt) is reported as 83.0%.
With “H-(D)-Chg-Gly-Pro-Arg 3-chloro-4-hydroxyanilide×2 TFA”, the step yield (late stage modification step, 2 TFA) is recorded as 72.0%.
For “t-Bups-(D)-Chg-Gly-Pro-Arg 3-chloro-4-hydroxyanilide×AcOH”, the step yield (late stage modification step, AcOH) stood at 88.0%.
